PubChem BioAssay AID1508588, Peter MacCallum Cancer Centre | 2020
Aim: 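Knock-downs boosting vemurafenib effects on melanoma cell growth or lactate release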 (primary screen). Cells: human WM266.4 melanoma cells (BRAF V600 mutant). Knock-down reagent: siRNA pool against human genes, 40 nM. Duration: 96 h from transfection to read-out. Conditions: vemurafenib 300 nM (about IC25), added 48 h after transfection, for 48 h; comparison arm got DMSO vehicle only. Read-out: 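Ratios to non-targeting siRNA for cell gain, counted as DAPI nuclei after minus before drug and averaged over two replicates, and for absorbance-read medium lactate per cell; both binned into fold-change classes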. Direction: cell gain with vemurafenib: higher = more cell gain than with non-targeting siRNA; lactate per cell with vemurafenib: higher = more lactate made per cell. Rule for the call: 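Enhancement is called by pairing each knock-down's vehicle-arm and drug-arm fold-change classes for viability or glycolysis; which class combinations qualify is not given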. Calls: active = enhances vemurafenib effect; inactive = no enhancement seen.
The whole screen tested about 18,000 reagents; shown is a random part of them. Over the whole deposit, 790 (4.4%) got an active call. 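Calls rest on a combination of fold-change classes in drug and vehicle arms, not all shown here.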 Entries without a mark were called inactive. No sequences are given here.

gene symbol,cell gain with vemurafenib,lactate per cell with vemurafenib
POLR3H (GeneID 171568),0.41,1.14
SARS2 (GeneID 54938),0.45,1.56
CT47A1 (GeneID 728096),0.94 (active),0.3
YEATS2 (GeneID 55689),0.32,0.68
SLAMF8 (GeneID 56833),0.95 (active),0.17
OSBPL10 (GeneID 114884),0.74,1.19
C4orf17 (GeneID 84103),0.49,1.68
IL18BP (GeneID 10068),0.47,2.04
ARHGAP30 (GeneID 257106),0.99,1.01
FAM32A (GeneID 26017),0.47,1.29
LEFTY1 (GeneID 10637),0.76,0.57
PCDHB9 (GeneID 56127),0.63,1.31
A4GNT (GeneID 51146),0.48,0.54
CASP6 (GeneID 839),0.55,0.84
BKGD (GeneID 28970),0.47 (active),0.45
ANKEF1 (GeneID 63926),0.3,1.04
AICDA (GeneID 57379),0.66,0.92
LIMA1 (GeneID 51474),0.91,0.46
EFCC1 (GeneID 79825),1.11,0.65
NLRP4 (GeneID 147945),0.71,1.4
MTG1 (GeneID 92170),0.61 (active),0.48
SCAMP3 (GeneID 10067),0.53,1.04
ABL2 (GeneID 27),0.37,1.12
BTG4 (GeneID 54766),0.26,1.86
XK (GeneID 7504),1.13,0.62
ADSL (GeneID 158),1.2,1.11
GAREM1 (GeneID 64762),0.76,0.73
ANK1 (GeneID 286),1.01,0.84

Reformatted: results already given.
gene symbol | cell gain with vemurafenib | lactate per cell with vemurafenib
EFCC1 (GeneID 79825) | 1.11 | 0.65
NLRP4 (GeneID 147945) | 0.71 | 1.4
MTG1 (GeneID 92170) | 0.61 (active) | 0.48
SCAMP3 (GeneID 10067) | 0.53 | 1.04
ABL2 (GeneID 27) | 0.37 | 1.12

Continued.
gene symbol,cell gain with vemurafenib,lactate per cell with vemurafenib
CBARP (GeneID 255057),1.01,0.64
LPA (GeneID 4018),0.19,0.71
ADAM15 (GeneID 8751),0.8,1.12
PRKAB1 (GeneID 5564),0.45,0.9
POU4F1 (GeneID 5457),0.45,0.6
BCL11B (GeneID 64919),0,1.62
PFDN1 (GeneID 5201),0.13,1.87
DENND10P1 (GeneID 55855),0.65,0.6
FYRD1 (GeneID 84897),0.47,1.46
CCIN (GeneID 881),0.95,0.51
DYRK3 (GeneID 8444),0.56,0.86
LHFPL4 (GeneID 375323),0.89,0.86
NKIRAS2 (GeneID 28511),0.8,0.8
CYS1 (GeneID 192668),0.79,0.97
IFNL2 (GeneID 282616),0.49,1.6
ZNF322P1 (GeneID 387328),0.17,1.44
TEX47 (GeneID 219557),0.73,0.64
SPCS1 (GeneID 28972),0.06 (active),0.34
HLA-G (GeneID 3135),0.48,0.43
AGAP1 (GeneID 116987),1.19,0.72
UBE2Z (GeneID 65264),0.14,0.89
LINC02915 (GeneID 400360),0.28,0.58
RTF1 (GeneID 23168),0.47,1.07
RPL35A (GeneID 6165),-0.04,0.19
ANAPC5 (GeneID 51433),0.38,1.49
TEC (GeneID 7006),0.99,0.84
SLC30A10 (GeneID 55532),0.43,1.5
PRR36 (GeneID 80164),0.76,1.06
IGLL3P (GeneID 91353),0.82,0.83
